# The whole screen tested about 580,000 compounds, of which about 6,100 (1.1%) were called active. This list was built around the results that the source calls inconclusive (neither active nor inactive); the mix of calls is not that of the screen. Calls come from the whole dose curve; as a rule, active = well fitted inhibition curve with a large enough effect; inconclusive = small, poorly fitted or top-dose-only effect, or another doubt; inactive = no such curve, though single readings can be large or run the other way. Potencies of inconclusive entries are doubtful fits and often do not repeat.
# By UniProt entry, the sequences of proteins in these tests, tags left out.
# UniProt P18054, whole entry, looked up: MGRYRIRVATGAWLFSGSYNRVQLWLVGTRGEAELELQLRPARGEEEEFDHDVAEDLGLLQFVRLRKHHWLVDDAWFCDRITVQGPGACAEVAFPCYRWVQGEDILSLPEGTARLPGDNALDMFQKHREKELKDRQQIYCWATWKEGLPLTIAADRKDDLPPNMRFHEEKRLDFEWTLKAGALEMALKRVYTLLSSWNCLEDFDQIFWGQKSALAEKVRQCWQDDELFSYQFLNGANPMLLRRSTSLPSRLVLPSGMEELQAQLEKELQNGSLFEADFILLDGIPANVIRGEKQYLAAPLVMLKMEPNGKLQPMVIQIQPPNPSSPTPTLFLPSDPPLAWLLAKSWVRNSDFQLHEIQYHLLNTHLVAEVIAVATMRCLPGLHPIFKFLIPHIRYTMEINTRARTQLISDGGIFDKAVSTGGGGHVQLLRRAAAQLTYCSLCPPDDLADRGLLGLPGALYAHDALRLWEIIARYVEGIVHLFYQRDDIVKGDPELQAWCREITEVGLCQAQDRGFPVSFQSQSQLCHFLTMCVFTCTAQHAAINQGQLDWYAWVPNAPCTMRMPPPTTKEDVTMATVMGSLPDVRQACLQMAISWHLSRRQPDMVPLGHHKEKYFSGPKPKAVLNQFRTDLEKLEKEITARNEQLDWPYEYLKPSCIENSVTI
# Molecular target: Polyunsaturated fatty acid lipoxygenase ALOX12 (Homo sapiens) (UniProt P18054)
# Experiment: Primary qHTS assay for inhibitors of human arachidonate 12S-lipoxygenase (ALOX12): Round 2
# Conditions: purified 12hLO, xylenol orange hydroperoxide absorbance; series mostly up to 108 µM
# Procedure, shortened: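 Purified human 12hLO (150 nM final) in 25 mM Hepes, 0.01% Triton X-100, pH 7.0 was preincubated 15 min at room temperature with compound. Then 40 uM arachidonic acid was added, 30 min. Hydroperoxide was read by Fe-XO absorbance ratio 573/405 nm.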
# Potency is the fitted concentration of half-maximal effect.
row,SMILES,Potency
1,CCN1CCN(C(=O)CN(c2ccc(C)cc2)S(C)(=O)=O)CC1,"inconclusive: 100 µM [inhibitor, single point]"
2,C=CCNC(=O)c1coc(COc2ccc3c(c2)C(c2ccc(C)cc2)N(C(=O)C2CC2)CC3)n1 (centres undefined),"inconclusive: 15.8 µM [inhibitor, full curve]"
3,Cc1ccc(OCCN2CCN(CC(O)Cn3c4ccccc4c4ccccc43)CC2)cc1 (centres undefined),"inconclusive: 10 µM [inhibitor, full curve]"
4,O=C1Nc2cc(Cl)cnc2N2CCCC12 (centres undefined),"inconclusive: 39.8 µM [inhibitor, partial curve, poor fit]"
5,CSc1nc2ccsc2c(=O)n1-c1ccccc1,"inconclusive: 22.4 µM [inhibitor, partial curve]"
6,COc1ccc(C(=O)NNC(=O)C(=O)/C=C(\O)c2ccc(C)cc2)cc1,active: 35.5 µM
7,COc1ccc(/C=C2/C(=O)N(c3ccccc3)N=C2C)cc1Br,"inconclusive: 17.8 µM [inhibitor, full curve, poor fit]"
8,CC(C)C(=O)Nc1cccc(NC(=S)NC(=O)c2ccc(Cl)cc2)c1,inactive
9,COc1ccc(CCN2C(=O)N(c3ccc(C)cc3)C(=O)C2CC(=O)Nc2ccc(OC)cc2)cc1 (centres undefined),inactive
10,Cn1nc(CC(=O)NCc2ccccc2CN2CCCCC2)c2ccccc2c1=O,inactive
11,COc1cc(OC)c(NS(=O)(=O)c2cc(C(=O)N3CCCCCC3)ccc2C)cc1Cl,inactive
12,CCOC(=O)C1=C(C)N(C[C@@H]2CC[C@@H](Cc3ccc(-c4ccccc4)cc3)O2)C(=O)NC1c1ccc(SCc2ccco2)c([N+](=O)[O-])c1 (some centres undefined),active: 17.8 µM
13,Cc1noc2c(Nc3ccc(C(N)=O)cc3)cc(-c3cccnc3)nc12,inactive
14,Clc1ccc2c(NCc3cccs3)ncnc2c1,inactive
15,CC1=C(C(=O)OC2CCCCC2)C(c2ccc(C)o2)C2=C(CCCC2=O)N1 (centres undefined),"inconclusive: 56.2 µM [inhibitor, partial curve, poor fit]"
16,Cc1ccc(-c2c3c(nc4sc(C(N)=O)c(N)c24)CCCC3)o1,inactive
17,Cc1cc(F)ccc1C(O)c1ncc(-c2ccc(Oc3ccccc3)cc2)[nH]1 (centres undefined),"inconclusive: 44.7 µM [inhibitor, partial curve, poor fit]"
18,Cn1c(SCC(=O)NC2CCCC2)nnc1-c1ccc(Cl)cc1,"inconclusive: 112 µM [inhibitor, single point]"
19,CCCOc1ccc(C(=O)Nc2nc(-c3ccc(OC)cc3)c(C)s2)cc1OC,"inconclusive: 70.8 µM [inhibitor, single point]"
20,c1ccc2c(C[C@@H]3CNCCN3CCC34CC5CC(CC(C5)C3)C4)cccc2c1,inactive
21,Cc1ccccc1CN1CC[C@@H]2OCC(=O)N(C(C)C)[C@H]2CC1,"inconclusive: 100 µM [inhibitor, partial curve, poor fit]"
22,Nc1nc(NC(=O)c2cccnc2)nn1-c1ccccc1,"inconclusive: 35.5 µM [inhibitor, single point]"
23,COC(=O)C1=C(C(=O)OC)[C@@H]2N(Cc3ccccc3)c3ccccc3[C@@]23C[C@@H](C(=O)OC)N(C(=O)c2cc(C)oc2C)C3=N1,"inconclusive: 112 µM [inhibitor, single point]"

# Single values from the entries so far.
# Potency, COc1cc(OC)c(NS(=O)(=O)c2cc(C(=O)N3CCCCCC3)ccc2C)cc1Cl reads inactive
# Potency, COc1ccc(C(=O)NNC(=O)C(=O)/C=C(\O)c2ccc(C)cc2)cc1 reads active: 35.5 µM
# Potency, CCCOc1ccc(C(=O)Nc2nc(-c3ccc(OC)cc3)c(C)s2)cc1OC reads inconclusive: 70.8 µM [inhibitor, single point]
# Potency, CCOC(=O)C1=C(C)N(C[C@@H]2CC[C@@H](Cc3ccc(-c4ccccc4)cc3)O2)C(=O)NC1c1ccc(SCc2ccco2)c([N+](=O)[O-])c1 (some centres undefined) reads active: 17.8 µM

# Further records follow.

row,SMILES,Potency
1,COc1ccc2sc(N(Cc3cccnc3)C(=O)c3cccs3)nc2c1,"inconclusive: 31.6 µM [inhibitor, partial curve]"
2,N=C(N)c1ccc(OCCCCCOc2ccc(C(=N)N)cc2)cc1,"inconclusive: 56.2 µM [inhibitor, partial curve, poor fit]"
3,CCOc1cc(/C=C2/NC(=O)NC2=O)cc(Br)c1OCC(=O)O,"inconclusive: 79.4 µM [inhibitor, single point]"
4,Cc1nn(-c2ccccc2)c(N2CCCC2)c1/C=N/NC(=S)Nc1ccccc1C(F)(F)F,active: 35.5 µM
5,Cn1c(=O)c2nc3ccc(NC(=O)C(F)(F)F)cc3nc2n(C)c1=O,"inconclusive: 70.8 µM [inhibitor, partial curve, poor fit]"
6,COc1cc(OC)cc(C(=O)N2CCCC(n3cc(-c4nc(C(C)C)no4)nn3)C2)c1 (centres undefined),"inconclusive: 50.1 µM [inhibitor, partial curve]"
7,CCOC(=O)C1(C)CCCN(C(=O)c2ccc3c(c2)CCO3)C1 (centres undefined),"inconclusive: 31.6 µM [inhibitor, single point]"
8,COc1ccc(C)cc1NC(=O)CN1CCN(S(=O)(=O)c2ccc(C(C)C)cc2)CC1,inactive
9,CCCCCCCNC(=O)C1(CC2CC(c3cccc(Br)c3)=NO2)CCN(C(=O)CCCCCBr)CC1 (centres undefined),active: 39.8 µM
10,NC1CCCN(c2cc(N3CCCC3)ncn2)C1 (centres undefined),inactive
11,O=C(O)Cc1ccc(N2C(=O)C(=O)/C(=C(/O)c3ccc(F)cc3)C2c2ccccc2Cl)cc1 (centres undefined),"inconclusive: 3.98 µM [inhibitor, full curve, poor fit]"
12,CCOc1cc(/C=C/c2nc3ccccc3s2)ccc1O,active: 39.8 µM
13,C=CCN1C(=O)CSc2ccc(C(=O)OCC)cc21,"inconclusive: 112 µM [inhibitor, single point]"
14,CCOC(=O)/C(C#N)=C/c1ccc(-c2ccccc2)o1,"inconclusive: 50.1 µM [inhibitor, partial curve, poor fit]"
15,COc1cc(/C=C/c2ccc3ccccc3n2)cc(OC)c1O,"inconclusive: 50.1 µM [inhibitor, partial curve, poor fit]"
16,Cc1ccc(-n2ncc3c(NC4CCCC4)ncnc32)cc1,"inconclusive: 2.82 µM [inhibitor, full curve, poor fit]"
17,O=C(CN1CCC(C(=O)c2ccc3c(c2)OCCO3)CC1)NCc1ccc(F)cc1,"inconclusive: 35.5 µM [inhibitor, single point]"
18,O=C(OCC(=O)N(C1CCCCC1)C1CCCCC1)c1ccncc1,inactive
19,Cc1cccc(NC(=O)c2ccccc2-c2ccccc2)c1,inactive
20,COc1ccc(CN2CCC(N(CCc3ccccc3)Cc3ccccc3)CC2)c(OC)c1,"inconclusive: 50.1 µM [inhibitor, partial curve, poor fit]"
21,O=C(NCC1(N2CCCCC2)CCCCC1)c1cccc(S(=O)(=O)Nc2ccc(F)cc2)c1,"inconclusive: 100 µM [inhibitor, single point]"
22,CCC(Sc1n[nH]c(=O)[nH]c1=O)C(=O)OCc1ccccc1 (centres undefined),inactive
23,O=[S+]([O-])(NCC1CN(Cc2ccc3[nH]ccc3c2)CC12CN(c1ccccc1)C2)c1ccccc1 (centres undefined),active: 35.5 µM

row,SMILES,Potency
1,COc1cc(NC(=O)c2ccc3c(c2)OCCO3)ccc1NC(=O)c1ccco1,"inconclusive: 89.1 µM [inhibitor, single point]"
2,Cc1ccc(NN=C2c3ccccc3-c3ccccc32)cc1,"inconclusive: 50.1 µM [inhibitor, partial curve, poor fit]"
3,CCCc1cc(=O)[nH]c(SC(C)C(=O)NC)n1 (centres undefined),"inconclusive: 39.8 µM [inhibitor, partial curve, poor fit]"
4,Cc1ccc(NC(=O)c2cc3c(s2)CCC3)cc1,"inconclusive: 50.1 µM [inhibitor, partial curve, poor fit]"
5,Cc1nn(Cc2ccc(C(=O)Nc3ccccc3C(F)(F)F)o2)c(C)c1Br,inactive
6,CCS(=O)(=O)C1=NN2C(=N)/C(=C\c3ccc(SCc4ccco4)o3)C(=O)N=C2S1,active: 35.5 µM
7,COC(=O)c1cc(NC(=O)C(C)N(c2ccc(C)c(C)c2)S(C)(=O)=O)ccc1Cl (centres undefined),inactive
8,CC(C)CC(N)c1csc(Nc2cc(Oc3ccccc3)ncn2)n1 (centres undefined),"inconclusive: 89.1 µM [inhibitor, single point]"
9,Fc1cccc(-c2nc(COc3ccc(Oc4ccccn4)cc3)co2)c1,"inconclusive: 2.24 µM [inhibitor, single point]"
10,Cc1cc(N2CCN(S(=O)(=O)c3ccc(C(F)(F)F)cc3)CC2)nc(C(C)C)n1,"inconclusive: 63.1 µM [inhibitor, partial curve, poor fit]"
11,O=C(O)C(Cc1c[nH]c2ccccc12)N1C(=O)C2C3c4ccccc4C(c4ccccc43)C2C1=O (centres undefined),"inconclusive: 44.7 µM [inhibitor, single point]"
12,CCC(C)NCCCOc1ccc(C)cc1OC (centres undefined),"inconclusive: 0.631 µM [inhibitor, full curve, poor fit]"
13,CC1=NN(c2ccccc2)C(=O)/C1=C/c1ccc(Cl)cc1,active: 6.31 µM
14,CCOC(=O)c1cc(-c2ccco2)nn1-c1ccc(C)cc1,"inconclusive: 50.1 µM [inhibitor, partial curve, poor fit]"
15,Cc1ccc2c(ccn2CCC(=O)Nc2nnc(C(C)C)s2)c1,inactive
16,CCOC(=O)Nc1ccc2c(c1)C(=NO)c1ccccc1-2,"inconclusive: 89.1 µM [inhibitor, single point]"
17,FC(F)(F)c1cnc(Sc2nnc3ccccn23)c(Cl)c1,inactive
18,c1ccc(Sc2cccc3ccccc23)c(CNC2=NCCN2)c1,"inconclusive: 44.7 µM [inhibitor, partial curve, poor fit]"
19,O=C(c1ccc(Cl)cc1Cl)N1CCN(c2ccc(N3CCOCC3)nn2)CC1,"inconclusive: 141 µM [inhibitor, partial curve, poor fit]"
20,c1ccc(Cc2nn3c(Cn4nnc5ccccc54)nnc3s2)cc1,active: 56.2 µM
21,C=CCc1cc(Cl)ccc1OCCNCCCOC,inactive
22,COc1ccc(/C=N\NC(=O)c2ccc(=O)[nH]n2)cc1O,"inconclusive: 112 µM [inhibitor, single point]"
23,S=C(Nc1ccccn1)Nc1ccccc1Cl,active: 35.5 µM
